The values that follow come from patent US9702869B2, “Assays, antibodies, immunogens and compositions related to 5-FU” (WELLSTAT DIAGNOSTICS, LLC, priority 2011, dated 2017).

For data set [1], the system named is monoclonal antibody 61C6. In words: Cross-reactivity evaluation with lyophilized reagents (Bi-mAb-Beads capture, TAG Plus 1-5C-5-FU-BSA detector). The format is binding, Balb/c mouse. The procedure: This experiment was performed to test the specificity of the monoclonal antibody 61C6 against 5-FU analogues, pro-drugs and interference reagents. […] In this Example, the components of 5-FU assay (capture, detector) were lyophilized and the sample (calibrator, controls, and spiked plasma samples) were added directly to the lyophilized reagent pellets.
The assay was prepared using the following protocol. […] The capture and the detector solutions were aliquoted (20 μL) and lyophilized.
The assay procedure was as follows. The electrostatic on the surface of the microplate was reduced by using a Zerostat Antistatic Device prior to use. The device was pointed on the surface of the microplate, squeezed and the trigger released a few times across the microplate. 1 lyophilized pellet of each capture and detector reagent was transferred into plate wells using the Vacuum Pick-Up System. A hollow needle tip was attached onto the pick-up pen, and the finger controlled vacuum was used for picking up (the index finger was placed over the hole so that vacuum was drawn through the needle) or releasing pellet (lifting the index finger off of the hole). On a metal plate holder of a Digital Heat Block set at 37±2° C., 50 μL of each calibrator, control, and sample (in this case cross-reactivity panels) were added in duplicate directly into plate wells containing 2 lyophilized pellets. The plate was placed on the Micromix shaker set at Form 8 & Amp 6 for 30 seconds to mix. The plate was then placed in the metal plate holder of a Digital Heat Block set at 37±2° C. The plate was covered with a plate cover and incubated for 5±0.5 minutes.

The nature of data set [2]: 5-FU ECL assay with antibody 61C6, summary of performance. The data set is classed as binding. As to conditions: 5-FU assay with antibody 61C6.
Where [3] appears, read: Without 5-FU, lyophilized reagents, human plasma.

Take `Nc1nc(=O)c2c([nH]1)NCC(CNc1ccc(C(=O)N[C@@H](CCC(=O)O)C(=O)O)cc1)N2C=O` (mixture of isomers) [Folinic Acid]: the “Measured Value” was determined as 129 ng/mL in data set [1] (With 75 ng/mL Spiked 5-FU), 965 ng/mL in data set [1] (With 1000 ng/mL Spiked 5-FU) and 0.8 ng/mL in data set [1] (setting [3]).
Turning to `CCCCCOC(=O)Nc1nc(=O)n([C@@H]2O[C@H](C)[C@@H](O)[C@H]2O)cc1F` [Capecitabine], the “Measured Value” in data set [1] (With 75 ng/mL Spiked 5-FU) is 143 ng/mL; in data set [1] (With 1000 ng/mL Spiked 5-FU), 1058 ng/mL; in data set [1] (setting [3]) it was 1.9 ng/mL.
As to `N.N.[Cl][Pt][Cl]` [Cisplatin], the “Measured Value” in data set [1] (With 1000 ng/mL Spiked 5-FU) is 1116 ng/mL.
Same read-out and setting: then `O=C1NCC(F)C(=O)N1` (stereo not shown) [DH5FU, 5-Fluorodihydropyrimidine-2,4-dione], with 1095 ng/mL.
As for `CCc1c2c(nc3ccc(OC(=O)N4CCC(N5CCCCC5)CC4)cc13)-c1cc3c(c(=O)n1C2)COC(=O)[C@]3(O)CC` [Irinotecan], the figures for the “Measured Value” in data set [1] (With 75 ng/mL Spiked 5-FU) and in data set [1] (With 1000 ng/mL Spiked 5-FU) were 139 ng/mL and 1266 ng/mL, respectively.
`CN(Cc1cnc2nc(N)nc(N)c2n1)c1ccc(C(=O)N[C@@H](CCC(=O)O)C(=O)O)cc1` [Methotrexate]: the “Measured Value” in data set [1] (With 75 ng/mL Spiked 5-FU) is 108 ng/mL; in data set [1] (With 1000 ng/mL Spiked 5-FU), 1106 ng/mL; in data set [1] (setting [3]) it was 1.1 ng/mL.
Turning to `O=C1[O][Pt]2([NH][C@@H]3CCCC[C@H]3[NH]2)[O]C1=O` [Oxaliplatin], the “Measured Value” in data set [1] (With 1000 ng/mL Spiked 5-FU) is reported as 971 ng/mL.
As for `O=c1[nH]c(=O)n(C2CCCO2)cc1F` (stereo not shown) [Tegafur], the “Measured Value” in data set [1] (With 75 ng/mL Spiked 5-FU) was 5723 ng/mL; in data set [1] (With 1000 ng/mL Spiked 5-FU), 5543 ng/mL; in data set [1] (setting [3]), 4229 ng/mL.
Taken in the same sequence, the figures for `Cc1cn([C@H]2C[C@H](O)[C@@H](CO)O2)c(=O)[nH]c1=O` [Thymidine] were 178 ng/mL, 1131 ng/mL and 17 ng/mL.
Taken in the same sequence, the figures for `Cc1c[nH]c(=O)[nH]c1=O` [Thymine] were 322 ng/mL, 1224 ng/mL and 99 ng/mL.
In the same order, the values of `O=c1cc[nH]c(=O)[nH]1` [Uracil] are 419 ng/mL, 1258 ng/mL and 186 ng/mL.
On to `O=c1ccn([C@@H]2O[C@H](CO)[C@@H](O)[C@H]2O)c(=O)[nH]1` [Uridine], for which the “Measured Value” in data set [1] (With 75 ng/mL Spiked 5-FU) is listed as 234 ng/mL; in data set [1] (With 1000 ng/mL Spiked 5-FU), 1094 ng/mL; in data set [1] (setting [3]), 48 ng/mL.

B1: mAb 61C6: monoclonal anti-5-FU antibody, IgG2b κ; heavy chain SEQ ID NO:2, light chain SEQ ID NO:6; from 3-carbon linker immunogen (antibody, listed as Mus musculus)
heavy: MDWLWNLLFLMAAAQSIQAQIQLVQSGPELKKPGETVTISCKASGYTLTNYGMNWVKQAPGKGLKWMGWINTNSGEPTYVEEFKGRFAFSLETSVSTVYLQISDLKHEDTATYFCARWGPHFNAYGWFAYWGQGTLVTVSAAKTTPPSVYPLAPGCGDTTGSSVTLGCLVKGYFPESVTVTWNSGSLSSSVHTFPALLQSGLYTMSSSVTVPSSTWPSQTVTCSVAHPASSTTVDKKLEPSGPISTINPCPPCKECHKCPAPNLEGGPSVFIFPPNIKDVLMISLTPKVTCVVVDVSEDDPDVQISWFVNNVEVHTAQTQTHREDYNSTIRVVSTLPIQHQDWMSGKEFKCKVNNKDLPSPIERTISKIKGLVRAPQVYILPPPAEQLSRKDVSLTCLVVGFNPGDISVEWTSNGHTEENYKDTAPVLDSDGSYFIYSKLNMKTSKWEKTDSFSCNVRHEGLKNYYLKKTISRSPGK
light: MMSSAQFLGLLLLCFQGTRCYIQMTQTASSLSASLGDRVTISCRASQDIWNYLNWYQQKPDGTIKLLIYYKSRLHSGVPSRFSGSGSGIDFSLTISNLEQEDFATYFCQQGHTLPWTFGGGSKLEIKRADAAPTVSIFPPSSEQLTSGGASVVCFLNNFYPKDINVKWKIDGSERQNGVLNSWTDQDSKDSTYSMSSTLTLTKDEYERHNSYTCEATHKTSTSPIVKSFNRNEC
notes: monoclonal anti-5-FU antibody, IgG2b κ; from 3-carbon linker immunogen
Regarding B1, in data set [2], the LDL is given as < 5.0 ng/mL and the dynamic range is listed as 10-30,000 ng/mL.
